Some of the results follow. The calls rarely recur for the same compound in another form.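 Kinases, fused to nanoluciferase, were expressed in K562 cells; luminescence was measured every 4 h from 2 to 18 h as percent of control (DMSO = 100%, positive control = 0%). A time point is decreased if signal falls significantly (2 sigma). Hits were called by the authors by a rule that is not shown; the count of time points alone does not decide it.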
Legend:
Test in all cases: number of time points (of 5) at which kinase-Nluc abundance scored as decreased, DMSO-normalised (count); higher = more persistent destabilization
Settings in all cases: K562; 2-18 h
CAMK2A = CAMK2A (UniProt Q9UQM7)
CAMK2G = CAMK2G (UniProt Q13555)
CDK10 = CDK10 (UniProt Q15131)
CDK3 = CDK3 (UniProt Q00526)
CDK5 = CDK5 (UniProt Q00535)
CDK6 = CDK6 (UniProt Q00534)
CHEK2 = CHEK2 (UniProt O96017)
CSF1R = CSF1R (UniProt P07333)
CSK = CSK (UniProt P41240)
CSNK1A1 = CSNK1A1 (UniProt P48729)
CSNK1D = CSNK1D (UniProt P48730)
DDR1 = DDR1 (UniProt Q08345)
DYRK1B = DYRK1B (UniProt Q9Y463)
DYRK2 = DYRK2 (UniProt Q92630)
EGFR = EGFR (UniProt P00533)
EGFR_G719S = EGFR_G719S (UniProt P00533)
EGFR_G719S_T790M = EGFR_G719S_T790M (UniProt P00533)
EGFR_L718V = EGFR_L718V (UniProt P00533)
EGFR_L858R = EGFR_L858R (UniProt P00533)
CDK2 = CDK2 (UniProt P24941)

Amino acid sequences for entries named in this document (tags omitted). A change or cut given only in a name is not applied to a line headed by its entry.
UniProt Q9UQM7, whole entry: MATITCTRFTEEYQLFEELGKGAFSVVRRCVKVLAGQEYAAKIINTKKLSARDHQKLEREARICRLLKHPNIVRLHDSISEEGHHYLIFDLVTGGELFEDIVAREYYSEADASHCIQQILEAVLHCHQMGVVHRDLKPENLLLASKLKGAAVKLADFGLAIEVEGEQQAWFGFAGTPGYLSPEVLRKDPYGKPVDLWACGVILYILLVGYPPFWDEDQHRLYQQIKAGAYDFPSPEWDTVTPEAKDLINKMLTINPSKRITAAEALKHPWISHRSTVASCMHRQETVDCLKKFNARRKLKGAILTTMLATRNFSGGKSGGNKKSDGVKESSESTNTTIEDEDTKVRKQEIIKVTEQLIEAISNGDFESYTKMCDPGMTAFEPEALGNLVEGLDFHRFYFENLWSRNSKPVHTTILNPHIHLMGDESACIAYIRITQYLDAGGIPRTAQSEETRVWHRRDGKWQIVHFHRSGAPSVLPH
UniProt Q13555: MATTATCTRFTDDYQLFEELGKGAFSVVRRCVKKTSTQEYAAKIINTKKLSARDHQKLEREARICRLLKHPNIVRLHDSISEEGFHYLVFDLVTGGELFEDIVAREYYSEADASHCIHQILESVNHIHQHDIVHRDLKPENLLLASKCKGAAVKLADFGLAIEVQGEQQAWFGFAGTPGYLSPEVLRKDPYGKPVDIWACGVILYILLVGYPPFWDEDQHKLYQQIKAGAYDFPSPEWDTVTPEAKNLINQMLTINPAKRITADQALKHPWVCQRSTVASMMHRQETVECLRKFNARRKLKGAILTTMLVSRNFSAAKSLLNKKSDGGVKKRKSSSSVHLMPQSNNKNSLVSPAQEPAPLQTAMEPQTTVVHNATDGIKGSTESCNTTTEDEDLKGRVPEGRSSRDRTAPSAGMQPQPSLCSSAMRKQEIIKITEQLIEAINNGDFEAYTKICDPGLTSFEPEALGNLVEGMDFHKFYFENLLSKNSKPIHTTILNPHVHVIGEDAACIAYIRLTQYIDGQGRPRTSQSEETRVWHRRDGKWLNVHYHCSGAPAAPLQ
UniProt Q00526: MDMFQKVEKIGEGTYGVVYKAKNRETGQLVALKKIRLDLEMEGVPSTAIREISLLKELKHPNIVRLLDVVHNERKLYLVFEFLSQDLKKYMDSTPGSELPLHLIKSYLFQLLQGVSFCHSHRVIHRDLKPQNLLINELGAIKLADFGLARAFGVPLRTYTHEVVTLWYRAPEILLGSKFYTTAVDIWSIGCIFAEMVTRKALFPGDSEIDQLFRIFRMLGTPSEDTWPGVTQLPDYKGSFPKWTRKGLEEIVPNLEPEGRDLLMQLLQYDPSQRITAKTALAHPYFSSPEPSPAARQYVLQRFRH
UniProt Q00535, whole entry, looked up: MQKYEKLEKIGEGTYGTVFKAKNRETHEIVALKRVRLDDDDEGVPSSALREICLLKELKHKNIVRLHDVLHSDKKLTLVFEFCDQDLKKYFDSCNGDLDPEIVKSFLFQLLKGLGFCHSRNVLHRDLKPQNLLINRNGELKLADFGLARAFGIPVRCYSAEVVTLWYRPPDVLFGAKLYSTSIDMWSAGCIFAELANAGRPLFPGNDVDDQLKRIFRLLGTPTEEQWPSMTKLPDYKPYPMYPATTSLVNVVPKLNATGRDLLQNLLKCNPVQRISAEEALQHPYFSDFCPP
UniProt O96017, whole entry: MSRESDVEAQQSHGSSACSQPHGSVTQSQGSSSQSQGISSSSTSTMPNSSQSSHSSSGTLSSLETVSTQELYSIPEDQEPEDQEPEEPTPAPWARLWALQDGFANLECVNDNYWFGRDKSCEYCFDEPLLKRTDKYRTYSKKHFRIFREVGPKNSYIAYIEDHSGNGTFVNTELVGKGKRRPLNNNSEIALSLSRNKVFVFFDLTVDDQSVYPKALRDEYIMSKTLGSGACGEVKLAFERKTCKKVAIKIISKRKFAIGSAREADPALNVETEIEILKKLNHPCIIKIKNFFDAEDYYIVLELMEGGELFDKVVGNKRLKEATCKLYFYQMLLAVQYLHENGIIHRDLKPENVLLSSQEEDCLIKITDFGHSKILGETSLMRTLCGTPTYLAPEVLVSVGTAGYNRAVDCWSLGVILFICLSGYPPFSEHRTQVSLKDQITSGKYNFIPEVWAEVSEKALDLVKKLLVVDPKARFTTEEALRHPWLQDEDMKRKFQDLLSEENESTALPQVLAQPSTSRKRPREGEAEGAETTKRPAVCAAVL
UniProt P07333, whole entry: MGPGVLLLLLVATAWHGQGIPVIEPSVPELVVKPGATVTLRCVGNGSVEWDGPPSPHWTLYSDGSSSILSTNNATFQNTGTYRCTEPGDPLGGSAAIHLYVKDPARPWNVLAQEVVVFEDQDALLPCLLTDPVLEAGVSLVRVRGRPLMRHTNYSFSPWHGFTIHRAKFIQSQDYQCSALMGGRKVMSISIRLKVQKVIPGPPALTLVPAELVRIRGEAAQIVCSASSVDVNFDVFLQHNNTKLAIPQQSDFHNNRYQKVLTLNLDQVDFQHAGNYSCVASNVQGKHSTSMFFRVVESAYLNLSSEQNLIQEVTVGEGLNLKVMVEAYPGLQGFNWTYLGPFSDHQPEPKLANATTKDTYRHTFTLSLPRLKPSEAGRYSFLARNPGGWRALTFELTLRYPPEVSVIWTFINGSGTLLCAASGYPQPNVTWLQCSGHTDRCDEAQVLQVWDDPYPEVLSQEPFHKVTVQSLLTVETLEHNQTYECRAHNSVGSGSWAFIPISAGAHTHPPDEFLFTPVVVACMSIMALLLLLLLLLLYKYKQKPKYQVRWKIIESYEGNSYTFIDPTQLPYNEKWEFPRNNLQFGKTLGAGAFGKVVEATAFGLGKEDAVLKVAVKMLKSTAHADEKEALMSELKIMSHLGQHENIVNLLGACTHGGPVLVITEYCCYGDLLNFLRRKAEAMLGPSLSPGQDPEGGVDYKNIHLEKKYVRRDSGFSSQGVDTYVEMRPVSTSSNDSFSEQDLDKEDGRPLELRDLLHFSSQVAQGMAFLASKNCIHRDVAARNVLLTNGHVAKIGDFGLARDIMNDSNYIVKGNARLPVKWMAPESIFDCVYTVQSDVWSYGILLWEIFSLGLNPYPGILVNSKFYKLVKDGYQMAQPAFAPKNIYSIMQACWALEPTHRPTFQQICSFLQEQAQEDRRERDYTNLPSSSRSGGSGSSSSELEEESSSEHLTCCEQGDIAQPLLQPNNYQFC
UniProt P41240: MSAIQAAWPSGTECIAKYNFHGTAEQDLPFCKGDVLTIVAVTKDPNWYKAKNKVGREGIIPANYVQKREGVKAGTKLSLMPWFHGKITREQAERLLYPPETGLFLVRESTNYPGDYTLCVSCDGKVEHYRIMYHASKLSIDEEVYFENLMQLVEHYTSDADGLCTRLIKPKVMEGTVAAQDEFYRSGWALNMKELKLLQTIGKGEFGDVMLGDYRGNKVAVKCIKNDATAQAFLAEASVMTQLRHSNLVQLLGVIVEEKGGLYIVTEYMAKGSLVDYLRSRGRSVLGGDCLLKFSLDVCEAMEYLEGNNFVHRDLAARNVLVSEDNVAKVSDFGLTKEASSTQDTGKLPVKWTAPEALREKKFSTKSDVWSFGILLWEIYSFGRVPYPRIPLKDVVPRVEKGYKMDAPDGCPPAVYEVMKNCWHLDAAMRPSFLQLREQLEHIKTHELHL
UniProt P48729: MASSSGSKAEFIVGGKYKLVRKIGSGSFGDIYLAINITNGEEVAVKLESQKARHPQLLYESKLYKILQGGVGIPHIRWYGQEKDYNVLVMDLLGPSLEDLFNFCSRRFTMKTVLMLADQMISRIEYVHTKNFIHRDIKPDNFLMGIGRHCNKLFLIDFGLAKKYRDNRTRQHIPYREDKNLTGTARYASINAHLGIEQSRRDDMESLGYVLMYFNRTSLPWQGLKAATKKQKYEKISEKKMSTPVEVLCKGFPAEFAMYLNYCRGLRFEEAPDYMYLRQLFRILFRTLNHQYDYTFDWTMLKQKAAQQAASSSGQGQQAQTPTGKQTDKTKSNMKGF
UniProt P48730: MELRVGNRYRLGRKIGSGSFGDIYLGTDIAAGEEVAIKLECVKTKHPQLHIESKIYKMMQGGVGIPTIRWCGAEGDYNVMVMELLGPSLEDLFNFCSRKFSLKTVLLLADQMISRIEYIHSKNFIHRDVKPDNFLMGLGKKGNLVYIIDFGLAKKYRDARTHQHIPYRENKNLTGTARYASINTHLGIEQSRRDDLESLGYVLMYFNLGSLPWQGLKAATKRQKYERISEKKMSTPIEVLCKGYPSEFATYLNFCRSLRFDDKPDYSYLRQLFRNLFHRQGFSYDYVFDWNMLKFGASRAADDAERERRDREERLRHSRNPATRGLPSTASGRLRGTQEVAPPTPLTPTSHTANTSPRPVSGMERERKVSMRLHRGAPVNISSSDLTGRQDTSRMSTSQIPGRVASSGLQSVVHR
UniProt Q08345: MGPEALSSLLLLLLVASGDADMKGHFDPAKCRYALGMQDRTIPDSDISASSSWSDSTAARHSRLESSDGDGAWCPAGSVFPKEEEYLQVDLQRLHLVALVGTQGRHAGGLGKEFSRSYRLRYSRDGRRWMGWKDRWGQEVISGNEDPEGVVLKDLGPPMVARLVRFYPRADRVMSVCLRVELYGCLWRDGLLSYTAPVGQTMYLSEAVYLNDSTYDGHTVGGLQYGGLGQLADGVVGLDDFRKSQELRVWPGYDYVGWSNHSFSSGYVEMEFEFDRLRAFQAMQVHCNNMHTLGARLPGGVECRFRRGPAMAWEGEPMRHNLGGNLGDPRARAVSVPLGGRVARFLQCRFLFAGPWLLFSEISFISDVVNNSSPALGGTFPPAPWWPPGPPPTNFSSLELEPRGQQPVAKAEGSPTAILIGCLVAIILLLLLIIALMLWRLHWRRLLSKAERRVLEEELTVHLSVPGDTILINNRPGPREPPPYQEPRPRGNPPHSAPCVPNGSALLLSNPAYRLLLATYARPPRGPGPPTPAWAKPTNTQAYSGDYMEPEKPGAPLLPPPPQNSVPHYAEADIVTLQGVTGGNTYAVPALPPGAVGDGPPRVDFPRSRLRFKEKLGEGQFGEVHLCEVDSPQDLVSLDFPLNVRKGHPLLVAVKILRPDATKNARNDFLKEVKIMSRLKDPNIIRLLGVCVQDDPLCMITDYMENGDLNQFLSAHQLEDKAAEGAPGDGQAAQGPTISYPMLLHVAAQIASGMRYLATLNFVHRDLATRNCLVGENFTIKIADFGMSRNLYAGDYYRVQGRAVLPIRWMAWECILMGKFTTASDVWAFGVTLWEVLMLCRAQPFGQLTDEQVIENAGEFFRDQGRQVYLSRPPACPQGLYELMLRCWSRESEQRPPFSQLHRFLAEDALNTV
UniProt Q9Y463, whole entry, looked up: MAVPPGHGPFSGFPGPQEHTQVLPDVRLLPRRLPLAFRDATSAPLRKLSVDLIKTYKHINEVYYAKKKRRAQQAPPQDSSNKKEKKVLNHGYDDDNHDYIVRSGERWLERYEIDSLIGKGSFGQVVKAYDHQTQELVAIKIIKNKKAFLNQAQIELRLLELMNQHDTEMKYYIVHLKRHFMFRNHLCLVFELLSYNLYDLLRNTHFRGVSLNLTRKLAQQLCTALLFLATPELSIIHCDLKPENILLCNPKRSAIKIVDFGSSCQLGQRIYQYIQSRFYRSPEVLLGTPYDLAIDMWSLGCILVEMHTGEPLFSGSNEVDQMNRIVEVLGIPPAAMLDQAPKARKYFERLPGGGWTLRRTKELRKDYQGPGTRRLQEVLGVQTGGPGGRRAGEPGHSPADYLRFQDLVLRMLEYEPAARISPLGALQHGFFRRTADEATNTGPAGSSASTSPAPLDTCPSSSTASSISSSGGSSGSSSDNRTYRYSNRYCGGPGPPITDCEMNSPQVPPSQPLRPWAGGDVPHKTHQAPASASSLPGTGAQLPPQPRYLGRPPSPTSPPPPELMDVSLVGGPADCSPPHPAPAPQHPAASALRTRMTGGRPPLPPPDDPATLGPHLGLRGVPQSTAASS
UniProt Q92630: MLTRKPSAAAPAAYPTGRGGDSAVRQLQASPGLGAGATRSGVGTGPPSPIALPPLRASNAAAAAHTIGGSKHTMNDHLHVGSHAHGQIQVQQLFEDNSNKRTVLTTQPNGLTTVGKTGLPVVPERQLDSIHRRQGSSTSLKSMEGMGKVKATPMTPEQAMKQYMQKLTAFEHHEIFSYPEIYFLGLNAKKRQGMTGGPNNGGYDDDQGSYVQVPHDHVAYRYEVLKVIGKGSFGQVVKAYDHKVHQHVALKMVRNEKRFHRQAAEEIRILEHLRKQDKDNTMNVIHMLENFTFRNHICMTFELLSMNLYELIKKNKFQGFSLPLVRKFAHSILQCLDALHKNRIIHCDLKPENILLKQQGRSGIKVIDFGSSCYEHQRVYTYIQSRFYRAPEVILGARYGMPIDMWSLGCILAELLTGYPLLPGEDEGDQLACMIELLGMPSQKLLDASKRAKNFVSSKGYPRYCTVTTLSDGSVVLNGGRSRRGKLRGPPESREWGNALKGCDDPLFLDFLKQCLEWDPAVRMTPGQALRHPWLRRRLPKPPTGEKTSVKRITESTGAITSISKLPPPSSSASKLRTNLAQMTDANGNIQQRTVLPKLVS

Measured: number of time points

COc1c(Cl)cc2c([nH]c3cnccc32)c1NC(=O)c1cccnc1C (10 µM)
not listed: CDK2
0: all other assays above

Cc1ncc(-c2ccnc(Nc3ccc(S(C)(=O)=O)cc3)n2)n1C(C)C (2.5 µM)
3: CHEK2 | EGFR_G719S
2: DYRK2
not listed: CDK2
0: all other assays above

Brc1c(Br)c(Br)c2n[nH]nc2c1Br (10 µM)
not listed: CDK2
0: all other assays above

C[C@H](CN(C)C)Oc1nc(Nc2cc3cccc(Cl)c3cn2)cnc1C#N (10 µM)
not listed: CHEK2
0: all other assays above

O=C(Nc1ccc(-c2ccnc(Nc3ccc(N4CCOCC4)cc3)n2)cc1)C1CCCN1 (configuration not stated) (10 µM)
not listed: CDK2
0: all other assays above

COc1ccc2c(C(=O)Nc3ccc(NC(=O)c4nn(C5CCN(C(=O)CC(C)(C)C#N)CC5)c5ccc(F)cc45)cc3Cl)cnn2c1 [Src Inhibitor 3] (2.5 µM)
0: CDK2 | CDK3 | CDK5 | CDK6
2: CAMK2G | CDK10 | CHEK2 | CSNK1D | DDR1 | EGFR
3: DYRK2
not listed: CSK
1: all other assays above

CC(C)(C)c1cc(NC(=O)Nc2ccc(-c3cn4c(n3)sc3cc(OCCN5CCOCC5)ccc34)cc2)no1 [Quizartinib] (10 µM)
1: CAMK2G | CSNK1D
2: DDR1 | EGFR
3: CSK
not listed: CSF1R
0: all other assays above

COc1ccc(COc2ccc(Cc3cnc(N)nc3N)cc2OC)cc1 (10 µM)
not listed: CSF1R | CDK2
0: all other assays above

CCCn1cnc2c(NCc3ccccc3)nc(NC(CC)CO)nc21 (configuration not stated) [Ca2+ channel agonist 1] (2.5 µM)
not listed: CDK3 | CDK5 | CDK2
0: all other assays above

NC(=O)c1ccc(-c2nc(-c3ccccn3)c(-c3ccc4c(c3)OCO4)[nH]2)cc1 (10 µM)
not listed: CDK2
0: all other assays above

— the supplement of paper PMC12823440, “Inhibitors supercharge kinase turnover through native proteolytic circuits” (Nature, 2025)
